In publication PMC4703869:
These are yes or no findings as the source states them, for the method shown. Binding seen in cells or lysates may run through a third protein. Some results given as binding are weak or reduced against the parent protein; the word gives no strength. Each block holds one molecule with its values, some of them ahead of it.

The chains behind the UniProt entries cited, without tags or fusion partners.
UniProt P46937: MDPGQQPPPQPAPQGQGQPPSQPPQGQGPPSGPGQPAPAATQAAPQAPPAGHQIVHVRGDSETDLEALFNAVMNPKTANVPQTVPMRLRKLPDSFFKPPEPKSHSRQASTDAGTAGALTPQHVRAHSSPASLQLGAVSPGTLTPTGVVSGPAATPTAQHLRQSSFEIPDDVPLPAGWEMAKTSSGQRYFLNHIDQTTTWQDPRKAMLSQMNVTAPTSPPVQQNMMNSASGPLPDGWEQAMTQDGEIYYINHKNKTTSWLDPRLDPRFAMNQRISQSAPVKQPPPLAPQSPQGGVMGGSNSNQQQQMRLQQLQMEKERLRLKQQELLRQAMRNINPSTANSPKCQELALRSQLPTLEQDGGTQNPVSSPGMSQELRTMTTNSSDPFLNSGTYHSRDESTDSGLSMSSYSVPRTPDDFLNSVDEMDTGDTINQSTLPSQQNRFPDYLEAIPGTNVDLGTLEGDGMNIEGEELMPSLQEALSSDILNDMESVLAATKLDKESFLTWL

Assays:
[1] = molecular target: T1, endogenous SRF of 293T cells (human (endogenous in 293T)) (UniProt P11831); assay: co-IP; endogenous proteins of 293T cell extract crosslinked with DSP; precipitated with YAP antibody or SRF antibody and protein A/G agarose; benzonase
T1 sequence: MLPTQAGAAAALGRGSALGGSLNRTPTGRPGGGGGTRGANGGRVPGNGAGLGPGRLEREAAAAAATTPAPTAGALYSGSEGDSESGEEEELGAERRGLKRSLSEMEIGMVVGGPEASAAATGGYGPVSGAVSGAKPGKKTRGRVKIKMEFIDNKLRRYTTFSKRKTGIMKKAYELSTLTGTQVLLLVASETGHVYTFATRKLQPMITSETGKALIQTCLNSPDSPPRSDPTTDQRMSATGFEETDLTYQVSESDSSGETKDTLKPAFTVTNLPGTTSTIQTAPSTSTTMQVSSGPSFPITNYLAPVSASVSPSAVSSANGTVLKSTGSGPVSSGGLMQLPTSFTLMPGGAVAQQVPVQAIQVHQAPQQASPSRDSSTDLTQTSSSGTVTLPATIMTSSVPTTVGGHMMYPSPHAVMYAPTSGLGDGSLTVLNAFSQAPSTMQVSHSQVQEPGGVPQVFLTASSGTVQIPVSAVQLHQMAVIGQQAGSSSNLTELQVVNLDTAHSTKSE

[2] = molecular target: endogenous YAP of 293T cells (human (endogenous in 293T)) (UniProt P46937); assay: as above

binding [1]: binds
Molecule: endogenous YAP of 293T cells (from UniProt P46937 1-504)

binding [2]: binds
B1: endogenous SRF of 293T cells (protein, UniProt P11831 1-508)
chain: T1 sequence
